In experiment [1] the target is Cpn60β2 (At3g13470) (A. thaliana) (UniProt Q9LJE4). As to the kind of experiment: SEC; 300 μM β2 and 150 μM mt-cpn10 reconstituted with Mg-ATP (500 μl), Superdex 200 run at 4°C; fractions on SDS-PAGE; both purified. On the technique in general: SEC sorts molecules by how far they enter the pores of the column.
The target of experiment [2] is T1, Cpn60β1 (At5g56500) (A. thaliana) (UniProt C0Z361).
T1 sequence: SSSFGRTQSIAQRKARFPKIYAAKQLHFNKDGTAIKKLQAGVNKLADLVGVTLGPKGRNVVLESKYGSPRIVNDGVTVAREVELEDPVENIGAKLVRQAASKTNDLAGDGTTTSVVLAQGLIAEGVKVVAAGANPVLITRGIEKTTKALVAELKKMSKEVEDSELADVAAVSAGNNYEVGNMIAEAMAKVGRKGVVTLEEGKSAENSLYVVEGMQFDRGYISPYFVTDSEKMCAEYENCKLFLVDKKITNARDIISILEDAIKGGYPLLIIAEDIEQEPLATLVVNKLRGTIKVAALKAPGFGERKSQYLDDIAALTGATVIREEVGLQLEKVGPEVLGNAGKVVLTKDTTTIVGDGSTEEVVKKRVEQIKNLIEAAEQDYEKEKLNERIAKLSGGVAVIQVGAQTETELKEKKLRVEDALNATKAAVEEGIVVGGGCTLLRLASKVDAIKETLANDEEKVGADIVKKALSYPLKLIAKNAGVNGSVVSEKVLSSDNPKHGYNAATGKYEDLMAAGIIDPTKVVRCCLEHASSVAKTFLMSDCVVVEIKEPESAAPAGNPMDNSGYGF
As to the kind of experiment: native gel or EMSA; reconstitution: 150 μM Cpn60α2 with 100 μM Cpn60β and 50 μM Cpn10 (GroES, mt-cpn10, Cpn20 or Cpn10(2)); 50 mM Tris-HCl pH 8, 0.3 M NaCl, 10 mM MgCl2, 16 mM KCl, 2 mM DTT, 5 mM ATP; 5 min at room temperature, 1 h at 30°C; 6% native polyacrylamide gel; both purified.

Protein sequences, listed by entry. Tags and fused reporters are not part of them. Lines headed by an entry give the natural chain unless they say otherwise; changes in a name come on top. Chains listed by the source or under a name are the forms on record and can include a tag or linker. Residues count along the entry.
UniProt Q9LJE4, residues 51-596: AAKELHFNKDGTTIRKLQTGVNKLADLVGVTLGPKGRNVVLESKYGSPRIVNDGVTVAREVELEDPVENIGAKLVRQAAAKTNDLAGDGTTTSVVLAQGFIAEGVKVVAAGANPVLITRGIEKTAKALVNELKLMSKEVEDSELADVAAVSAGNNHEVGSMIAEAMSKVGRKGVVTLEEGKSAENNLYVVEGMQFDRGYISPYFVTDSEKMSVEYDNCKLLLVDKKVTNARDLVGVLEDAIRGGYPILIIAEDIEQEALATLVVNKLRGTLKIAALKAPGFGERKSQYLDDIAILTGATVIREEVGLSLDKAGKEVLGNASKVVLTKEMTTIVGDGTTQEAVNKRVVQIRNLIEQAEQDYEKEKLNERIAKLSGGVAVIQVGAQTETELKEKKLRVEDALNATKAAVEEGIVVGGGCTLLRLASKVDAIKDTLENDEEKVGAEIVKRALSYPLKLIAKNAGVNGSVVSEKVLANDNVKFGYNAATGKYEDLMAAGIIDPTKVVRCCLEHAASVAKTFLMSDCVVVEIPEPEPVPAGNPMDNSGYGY
Cpn60α2 (At2g28000) (P21238, form named): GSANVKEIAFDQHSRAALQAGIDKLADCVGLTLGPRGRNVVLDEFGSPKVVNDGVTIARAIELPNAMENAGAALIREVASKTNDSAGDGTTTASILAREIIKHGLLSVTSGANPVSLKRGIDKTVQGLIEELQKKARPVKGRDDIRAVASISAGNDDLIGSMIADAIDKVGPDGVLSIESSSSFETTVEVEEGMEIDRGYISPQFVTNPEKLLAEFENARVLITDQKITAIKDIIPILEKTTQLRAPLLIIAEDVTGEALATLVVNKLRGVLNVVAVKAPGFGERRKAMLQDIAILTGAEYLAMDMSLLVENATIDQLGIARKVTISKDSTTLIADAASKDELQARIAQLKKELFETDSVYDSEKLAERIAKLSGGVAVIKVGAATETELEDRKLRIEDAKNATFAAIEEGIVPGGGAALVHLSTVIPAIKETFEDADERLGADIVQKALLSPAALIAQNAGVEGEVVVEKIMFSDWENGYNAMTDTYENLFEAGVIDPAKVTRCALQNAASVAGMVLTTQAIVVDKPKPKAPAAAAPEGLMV

These are yes or no findings as the source states them, for the method shown. Some results given as binding are weak or reduced against the parent protein; the word gives no strength.

The values below come from PMC5790771.

On to “Cpn60β2 (At3g13470) (from UniProt Q9LJE4 51-596)”, for which the binding entry in experiment [1] was “no binding (condition: gel filtration at 4°C)”.

Consider “Cpn60α2 (At2g28000) (from UniProt P21238 46-586)”, for which, in experiment [2], the binding result is given as “binds”.
